Test results from PubChem BioAssay AID504834 (National Center for Advancing Translational Sciences (NCATS), 2011).
Screen size: about 320,000 compounds; about 22,000 (6.9%) were called active. The shares of active, inactive and inconclusive entries below differ from those in the screen. The call rests on the fitted dose curve; in most records, active means well fitted inhibition curve with a large enough effect; inconclusive means small, poorly fitted or top-dose-only effect, or another doubt; inactive means no such curve, though single readings can be large or run the other way. A potency beside an inconclusive call is a rough fit, not a confirmed value.
On the % scale 0 is the no-effect control and ±100 the full control effect; potency means the concentration at half of the fitted maximal effect.

Assay: Primary qHTS for delayed death inhibitors of the malarial parasite plastid, 96 hour incubation
Conditions: P. falciparum luciferase reporter growth; series mostly up to 28.7 µM
In short: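 Luminescence readout: decreased luciferase signal marks inhibited growth of reporter-expressing P. falciparum in infected red cells (2% hematocrit, 0.05% parasitemia final), exposed to compound two generations (96 h, 37 C, 5% CO2).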
With `COc1ccc(/C=N/NC(=O)CSCC(=O)Nc2ccccc2)cc1OC` the Potency was “inactive”. For `NC(=O)CC(NC(=O)c1ccccc1)c1ccc(NCc2ccccn2)c([N+](=O)[O-])c1` (stereo not given), the Potency was inconclusive: 8.28 µM [inhibitor, partial curve, poor fit]. With `CC(C)(C)c1csc(NC(=O)CS(=O)(=O)c2ccccc2)n1` the Potency was “inactive”. In the case of `CN1CCN(c2nc(-c3ccccn3)nc3ccccc23)CC1`, the Potency was active: 5.86 µM. For `O=C(c1ccncc1)N1N=C(C2CC2)CC1(O)C(F)(F)F` (stereo not given), the Potency was inconclusive: 16.5 µM [inhibitor, single point]. With `COc1ccc(NC(=O)CSc2nc3ccccc3c(=O)n2CCCO)cn1` the Potency was inconclusive: 13.1 µM [inhibitor, partial curve, poor fit]. In the case of `CCOC(=O)N1CCC(NC(=O)c2cccc3c2C(=O)N(c2ccc(OC)cc2)C3)CC1`, the Potency was inconclusive: 18.5 µM [inhibitor, single point]. For `Cc1c(C(=O)OCC(=O)Nc2ccc(C(N)=O)cc2)cccc1[N+](=O)[O-]`, the Potency was “inactive”. In the case of `O=C(c1ccc(S(=O)(=O)N2CCOCC2)cc1)N1CCCc2ccccc21`, the Potency was inconclusive: 2.33 µM [inhibitor, full curve]. For `Cn1c(N/N=C/c2ccccc2)nc2sc3c(c2c1=O)CCC3`, the Potency was inconclusive: 0.0029 µM [inhibitor, full curve, poor fit]. With `O=C(O)c1ccc2c(c1)C(=O)N([C@H](Cc1ccc(O)cc1)C(=O)O)C2=O` the Potency was inconclusive: 9.28 µM [activator, partial curve, poor fit]. In the case of `CN(C)c1ccc(/C=C/c2nnnn2-c2ccccc2)cc1`, the Potency was active: 13.1 µM. For `C=CCn1c(COc2cc(C)ccc2C(C)C)nnc1SCC(=O)c1c(N)n(C)c(=O)n(C)c1=O`, the Potency was inconclusive: 11.7 µM [inhibitor, single point]. With `Nc1nc(CSC(=S)N2CCCCC2)nc(Nc2ccccc2)n1` the Potency was “inactive”. With `CCOC(=O)N1CCN(Cc2nc3c(c(=O)n(C)c(=O)n3C)n2Cc2ccc(F)cc2)CC1` the Potency was inconclusive: 0.522 µM [inhibitor, full curve, poor fit]. For `O=C(NCCc1c[nH]c2ccccc12)C(=O)NCC1OCCN1S(=O)(=O)c1cc(F)ccc1F` (stereo not given), the Potency was inconclusive: 5.86 µM [inhibitor, partial curve, poor fit]. In the case of `Cc1ccc(CCNS(=O)(=O)c2ccc(C)cc2)cc1`, the Potency was inconclusive: 1.17 µM [inhibitor, partial curve, poor fit]. With `COc1ccc(C(CNS(=O)(=O)c2ccc(F)cc2)N2CCN(C)CC2)cc1` (stereo not given) the Potency was “inactive”. For `CS(=O)(=O)N1CCN(C/C=C/c2ccccc2)CC1`, the Potency was inconclusive: 2.08 µM [inhibitor, full curve, poor fit]. With `CCC1(C)NC(=O)N(/N=C/c2cc(OC)c(O)c(OC)c2)C1=O` (stereo not given) the Potency was “inactive”. For `CCOc1ccc(C(C)=O)cc1CSC(=N)N`, the Potency was “inactive”. In the case of `CCCC(=O)Nc1nnc(CCOC)s1`, the Potency was inconclusive: 18.5 µM [inhibitor, single point]. With `OCC[C@@H]1C[C@H](O)[C@@H](O)[C@]2(CCCc3ccccc3O2)O1` the Potency was “inactive”. For `COc1ccc(CNC(=O)c2onc(C)c2Cl)cc1`, the Potency was active: 13.1 µM. For `Cc1ccc(NC(=O)CSc2nnc(-c3cc(C)[nH]n3)n2N)cc1`, the Potency was inconclusive: 18.5 µM [inhibitor, partial curve, poor fit]. In the case of `COC(=O)[C@@H](NC(=O)Nc1ccc(C(C)=O)cc1)C(C)C`, the Potency was “inactive”. In the case of `CC(NC(=S)NC1CCCCC1)C(c1ccccc1)N1CCOCC1` (stereo not given), the Potency was inconclusive: 10.4 µM [inhibitor, single point]. With `O=C(CCCCCn1c(=S)[nH]c2cc3c(cc2c1=O)OCO3)N1CCN(C2CCCCC2)CC1` the Potency was inconclusive: 0.0029 µM [inhibitor, full curve, poor fit]. For `COc1ccc(-c2cc3ccccc3n2CC(O)Cn2nc(C)cc2C)cc1` (stereo not given), the Potency was “inactive”. In the case of `COc1ccccc1NC(=O)CCC(=O)OCc1cccc([N+](=O)[O-])c1`, the activity change, negative = inhibition was inactive: 35.2% [at 5.75 µM]. With `CN(Cc1ccccc1)c1nc2c(c(=O)[nH]c(=O)n2C)n1CCOc1ccccc1` the Potency was inconclusive: 9.28 µM [inhibitor, single point]. With `Cc1cc(NC(=O)Cc2ccccc2)ccc1NC(=O)c1cccs1` the Potency was inconclusive: 6.57 µM [inhibitor, partial curve, poor fit]. For `S=C(Nc1ccc2cn[nH]c2c1)Nc1ccc(Cl)cc1Cl`, the Potency was “inactive”. For `Cc1ccc(SC[C@H](c2ccccc2)N2CCN(CC(C)C)CCC2=O)cc1`, the Potency was inconclusive: 18.5 µM [inhibitor, single point]. In the case of `O=C(N/N=C/c1ccccn1)c1cc(-c2ccc(Br)s2)[nH]n1`, the Potency was “inactive”. For `Cc1ccc(NC(=O)C2SC(=Nc3ccccc3)C(C(=O)Nc3ccc(Cl)cc3)=C2N)cc1` (stereo not given), the Potency was inconclusive: 14.7 µM [inhibitor, single point]. In the case of `COC(OC)c1ccnc(-c2ccc(OC(C)=O)cc2)n1`, the Potency was “inactive”. With `Cc1ccc(C(=O)N2CCN(Cc3ccccc3)CC2)o1` the Potency was inconclusive: 18.5 µM [inhibitor, single point]. In the case of `COc1ccc(C(C)=O)cc1CN1C(=O)NC(c2ccccc2)(c2ccccc2)C1=O`, the Potency was inconclusive: 13.1 µM [inhibitor, single point]. In the case of `COC(=O)c1cccc(NC(=S)Nc2cccc(Cl)c2Cl)c1`, the Potency was inconclusive: 18.5 µM [inhibitor, single point]. For `Cc1ccc(C)c(NC(=O)C2CC(=O)N(C3CCCCC3)C2)c1` (stereo not given), the Potency was inconclusive: 5.86 µM [inhibitor, single point]. With `CC(=O)c1ccc(S(=O)(=O)N2CCN(CC(=O)NC(=O)NC3CCCCC3)CC2)cc1` the Potency was inconclusive: 18.5 µM [inhibitor, single point]. With `CCc1nc2ccc(C(=O)N3CCN(c4ccccc4F)CC3)cc2nc1CC` the Potency was inconclusive: 18.5 µM [inhibitor, single point]. For `CCCc1ccc(-c2ccc(F)c(N)c2)nc1`, the Potency was “inactive”. In the case of `CCCC(=O)NC(NC(=S)Nc1c(C)n(C)n(-c2ccccc2)c1=O)C(Cl)(Cl)Cl` (stereo not given), the Potency was inconclusive: 18.5 µM [inhibitor, single point].
